Reference: publication doi:10.1101/2025.07.14.664742
Results are given in words; binding and its absence hold for the method and conditions named. Binding seen in cells or lysates may run through a third protein. Some entries that bind do so weakly or less than the wild type.

Sequences of proteins named here, by UniProt entry; tags and fusion partners are left off.
UniProt Q15172: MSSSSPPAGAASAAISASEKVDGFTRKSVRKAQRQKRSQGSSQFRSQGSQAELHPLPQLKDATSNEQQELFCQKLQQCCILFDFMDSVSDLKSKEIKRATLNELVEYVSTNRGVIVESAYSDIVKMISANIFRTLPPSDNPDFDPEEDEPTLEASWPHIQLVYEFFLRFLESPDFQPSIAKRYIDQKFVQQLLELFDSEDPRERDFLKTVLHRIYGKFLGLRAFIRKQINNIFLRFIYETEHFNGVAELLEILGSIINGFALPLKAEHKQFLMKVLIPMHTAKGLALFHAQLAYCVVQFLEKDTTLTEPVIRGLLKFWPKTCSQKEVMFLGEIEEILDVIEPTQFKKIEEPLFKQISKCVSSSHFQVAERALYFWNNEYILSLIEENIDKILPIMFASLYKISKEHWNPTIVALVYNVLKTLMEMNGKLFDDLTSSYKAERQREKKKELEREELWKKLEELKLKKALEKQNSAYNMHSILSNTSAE
UniProt Q9Y2I7: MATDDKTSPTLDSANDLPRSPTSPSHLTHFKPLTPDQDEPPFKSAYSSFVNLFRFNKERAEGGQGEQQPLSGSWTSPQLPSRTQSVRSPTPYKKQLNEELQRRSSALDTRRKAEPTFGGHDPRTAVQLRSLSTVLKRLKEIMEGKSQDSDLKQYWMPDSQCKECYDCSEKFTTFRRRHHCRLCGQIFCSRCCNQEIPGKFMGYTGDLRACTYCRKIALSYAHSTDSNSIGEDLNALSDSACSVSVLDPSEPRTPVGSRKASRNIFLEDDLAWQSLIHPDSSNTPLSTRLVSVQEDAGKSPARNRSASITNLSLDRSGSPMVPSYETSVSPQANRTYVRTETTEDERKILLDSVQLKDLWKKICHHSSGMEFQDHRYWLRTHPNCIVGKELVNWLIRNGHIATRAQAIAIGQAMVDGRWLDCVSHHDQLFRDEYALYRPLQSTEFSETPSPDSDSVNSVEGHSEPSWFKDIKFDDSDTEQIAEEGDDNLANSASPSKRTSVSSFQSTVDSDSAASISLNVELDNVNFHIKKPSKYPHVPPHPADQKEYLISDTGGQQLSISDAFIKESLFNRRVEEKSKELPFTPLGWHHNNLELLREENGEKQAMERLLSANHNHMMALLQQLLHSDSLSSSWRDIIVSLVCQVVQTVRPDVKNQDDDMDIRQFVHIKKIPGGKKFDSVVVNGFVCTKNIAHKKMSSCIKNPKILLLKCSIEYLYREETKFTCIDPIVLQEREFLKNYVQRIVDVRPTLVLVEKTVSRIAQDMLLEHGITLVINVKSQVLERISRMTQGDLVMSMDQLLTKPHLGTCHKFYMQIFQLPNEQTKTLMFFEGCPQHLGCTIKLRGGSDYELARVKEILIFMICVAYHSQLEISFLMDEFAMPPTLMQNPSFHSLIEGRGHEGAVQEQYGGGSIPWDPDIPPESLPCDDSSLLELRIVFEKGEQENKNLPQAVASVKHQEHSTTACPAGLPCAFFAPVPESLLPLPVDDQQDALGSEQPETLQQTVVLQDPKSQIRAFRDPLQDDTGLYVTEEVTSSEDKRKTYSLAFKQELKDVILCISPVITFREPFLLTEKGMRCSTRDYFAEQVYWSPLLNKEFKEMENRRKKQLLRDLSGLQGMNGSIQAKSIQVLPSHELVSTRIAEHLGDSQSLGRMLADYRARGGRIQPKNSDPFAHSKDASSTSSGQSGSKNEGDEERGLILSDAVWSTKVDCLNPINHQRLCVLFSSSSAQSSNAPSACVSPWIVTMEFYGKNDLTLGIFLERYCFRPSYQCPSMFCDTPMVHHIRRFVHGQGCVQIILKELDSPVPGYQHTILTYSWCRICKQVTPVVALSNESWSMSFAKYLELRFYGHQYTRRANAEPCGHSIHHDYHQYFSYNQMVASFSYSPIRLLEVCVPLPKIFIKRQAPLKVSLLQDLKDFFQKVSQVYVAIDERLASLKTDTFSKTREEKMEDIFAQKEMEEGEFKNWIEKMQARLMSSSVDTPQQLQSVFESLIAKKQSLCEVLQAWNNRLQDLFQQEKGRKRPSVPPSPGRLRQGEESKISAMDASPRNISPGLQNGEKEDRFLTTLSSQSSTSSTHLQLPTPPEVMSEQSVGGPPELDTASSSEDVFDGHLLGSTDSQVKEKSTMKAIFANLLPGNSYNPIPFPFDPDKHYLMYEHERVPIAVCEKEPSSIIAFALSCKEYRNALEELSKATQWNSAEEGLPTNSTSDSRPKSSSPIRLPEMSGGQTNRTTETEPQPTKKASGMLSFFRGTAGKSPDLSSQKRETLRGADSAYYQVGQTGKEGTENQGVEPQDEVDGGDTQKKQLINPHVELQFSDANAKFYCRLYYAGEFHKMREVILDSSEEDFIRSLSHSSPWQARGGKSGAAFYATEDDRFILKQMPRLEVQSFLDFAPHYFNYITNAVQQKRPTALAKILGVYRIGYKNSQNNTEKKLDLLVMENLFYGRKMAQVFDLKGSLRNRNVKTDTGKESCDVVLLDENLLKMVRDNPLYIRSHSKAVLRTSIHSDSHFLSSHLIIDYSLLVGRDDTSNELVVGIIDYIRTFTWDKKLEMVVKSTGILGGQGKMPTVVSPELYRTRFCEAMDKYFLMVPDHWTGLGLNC

Columns and labels:
[1] = target: HA-B56α (UniProt Q15172); assay: proximity ligation
[2] = target: B56α endogenous protein (human (endogenous in HEK293T)) (UniProt Q15172); assay: co-IP

## PIKfyve-GFP (from UniProt Q9Y2I7 1-2098) (enzyme)
[1]
  binding: binds
[2]
  binding: binds
